Measured values reported in PubChem BioAssay AID190 (DTP/NCI, 2004).
The list does not hold the whole screen: it gathers tests that were run many times, whatever their T/C, doses with no T/C, and many T/C values between a quarter and a half above the control. Other doses and runs of a compound stand elsewhere. T/C is the treated group as % of the vehicle group. Some entries give survivors of the animals treated and no T/C: the source files T/C as zero there, which appears to mark a toxic dose or a test without result, not a measured value. Some survivor counts are full or nearly so, which does not show that the dose was tolerated: survival well below the control is almost never listed, so the zero probably covers shortened survival too. Counts of survivors are from the toxicity check (mostly the fifth day) where no day follows; animals may have died later. Schedules are NCI's codes, read here as Q, the interval in days (D) or hours (H), X, the number of doses. Signs of the kind (2×) stand for listed records that agree. Some entries hold several experiments; the values are given in rising order. Where survival is the endpoint, the PubChem record calls one and a half times the control and up active, and a quarter to a half above the control has no call in these data; cut-offs in other NCI protocols can differ. Some T/C values carry the count of animals alive at the toxicity check (mostly the fifth day); without a count, all were alive then.

Tested on: AKR/Lw mice, AKR lymphoma ip, median survival T/C
Assay: NCI In Vivo Anticancer Drug Screen. Data for tumor model Lymphoma AKR (Transplanted) (intraperitoneal) in AKR/Lw mice
Details: T/C endpoint: median survival time, higher T/C = longer survival
Description: The antitumor activity of compounds was measured in mice bearing transplantable tumors. Survival or tumor size were measured and the results are expressed as the measurement made in the treated group (T) divided by the measurement made in the vehicle treated control group (C). The tumor model used in this assay is Lymphoma AKR (Transplanted) (intraperitoneal) in AKR/Lw mice

[1] = dose: 0.5 mg/kg/injection, schedule: Q01DX009 (ip), vehicle: saline
[2] = dose: 1.5 mg/kg/injection, schedule: Q04DX003 (ip), vehicle: saline
[3] = dose: 2.0 mg/kg/injection, schedule: Q01DX009 (ip), vehicle: saline
[4] = dose: 3.0 mg/kg/injection, schedule: Q04DX003 (ip), vehicle: saline
[5] = dose: 4.0 mg/kg/injection, schedule: Q01DX009 (ip), vehicle: saline
[6] = dose: 10.0 mg/kg/injection, schedule: Q01DX001 (ip), vehicle: saline
[7] = dose: 20.0 mg/kg/injection, schedule: Q01DX001 (ip), vehicle: saline
[8] = dose: 24.0 mg/kg/injection, schedule: Q04DX003 (ip), vehicle: water
[9] = dose: 25.0 mg/kg/injection, schedule: Q01DX001 (ip), vehicle: saline
[10] = dose: 40.0 mg/kg/injection, schedule: Q01DX001 (ip), vehicle: saline

Nc1ncn(C2OC(CO)C(O)C2O)c(=O)n1 (stereo not given)
T/C (dose: 0.03 mg/kg/injection, schedule: Q04DX008 (ip), vehicle: saline): 130 % of control | T/C (dose: 0.06 mg/kg/injection, schedule: Q01DX009 (ip), vehicle: saline): 128 % of control | T/C (dose: 0.12 mg/kg/injection, schedule: Q01DX009 (ip), vehicle: saline): 91 [7 of 10 alive], 108, 115, 142 % of control [9 of 10 alive] | T/C (dose: 0.12 mg/kg/injection, schedule: Q04DX008 (ip), vehicle: saline): 125 % of control | survivor count (dose: 0.18 mg/kg/injection, schedule: Q04DX003 (ip), vehicle: saline): 10 of 10 | T/C (dose: 0.25 mg/kg/injection, schedule: Q01DX009 (ip), vehicle: saline): 94, 97, 110, 117 (2×), 119, 125 % of control [9 of 10 alive] | T/C (dose: 0.25 mg/kg/injection, schedule: Q04DX008 (ip), vehicle: saline): 138 % of control | T/C (dose: 0.37 mg/kg/injection, schedule: Q01DX009 (ip), vehicle: water): 133 % of control | T/C (dose: 0.37 mg/kg/injection, schedule: Q04DX003 (ip), vehicle: saline): 128 % of control | T/C [1]: 94, 96, 103, 108 [8 of 10 alive], 115 [8 of 10 alive], 132 [9 of 10 alive], 139, 157 % of control | survivor count [1]: 5 of 10 and 10 of 10 | T/C (dose: 0.5 mg/kg/injection, schedule: Q04DX004 (ip), vehicle: saline): 128 % of control | survivor count (dose: 0.75 mg/kg/injection, schedule: Q01DX009 (ip), vehicle: water): 10 of 10 | T/C (dose: 0.75 mg/kg/injection, schedule: Q04DX003 (ip), vehicle: saline): 93, 130, 136, 141 % of control | T/C (dose: 1.0 mg/kg/injection, schedule: Q01DX009 (ip), vehicle: saline, evaluated on day 45): 129 % of control | T/C (dose: 1.0 mg/kg/injection, schedule: Q01DX009 (ip), vehicle: saline, evaluated on day 60): 105, 116 [9 of 10 alive], 117, 130, 131, 138 [9 of 10 alive], 200, 228 % of control [9 of 10 alive] | survivor count (dose: 1.0 mg/kg/injection, schedule: Q01DX009 (ip), vehicle: saline): 8 of 10 and 9 of 10 | T/C (dose: 1.0 mg/kg/injection, schedule: Q04DX004 (ip), vehicle: saline): 137 % of control | T/C (dose: 1.0 mg/kg/injection, schedule: Q04DX008 (ip), vehicle: saline): 130 % of control [9 of 10 alive] | survivor count (dose: 1.5 mg/kg/injection, schedule: Q01DX009 (ip), vehicle: saline): 9 of 10 | survivor count (dose: 1.5 mg/kg/injection, schedule: Q01DX009 (ip), vehicle: water): 10 of 10 | T/C [2]: 94, 96, 97, 111, 141 % of control | survivor count [2]: 6 of 10 and 8 of 10 | T/C [3]: 91, 100, 110, 123, 130 [9 of 10 alive], 314 % of control | survivor count [3]: 10 of 10 (2×) | T/C (dose: 2.0 mg/kg/injection, schedule: Q04DX004 (ip), vehicle: saline): 126 % of control | T/C (dose: 2.0 mg/kg/injection, schedule: Q04DX008 (ip), vehicle: saline): 147 % of control | survivor count (dose: 3.0 mg/kg/injection, schedule: Q01DX009 (ip), vehicle: saline): 10 of 10 | survivor count (dose: 3.0 mg/kg/injection, schedule: Q01DX009 (ip), vehicle: water): 10 of 10 | T/C [4]: 97 [9 of 10 alive], 103, 108 [9 of 10 alive], 121, 125, 135 % of control | survivor count [4]: 6 of 10 and 10 of 10 | T/C (dose: 3.0 mg/kg/injection, schedule: Q04DX008 (ip), vehicle: saline): 147 % of control | T/C [5]: 123 % of control | survivor count [5]: 7 of 10, 8 of 10, 9 of 10, 10 of 10 | T/C (dose: 5.0 mg/kg/injection, schedule: Q01DX001 (ip), vehicle: saline): 93, 97 [8 of 10 alive], 104, 115, 138 % of control | T/C (dose: 6.0 mg/kg/injection, schedule: Q04DX003 (ip), vehicle: saline, evaluated on day 45): 102, 125, 137 [9 of 10 alive], 171 % of control | T/C (dose: 6.0 mg/kg/injection, schedule: Q04DX003 (ip), vehicle: saline, evaluated on day 60): 102 [8 of 10 alive], 125 [9 of 10 alive], 130, 140, 144 [9 of 10 alive], 147 % of control | survivor count (dose: 6.0 mg/kg/injection, schedule: Q04DX003 (ip), vehicle: saline): 10 of 10 | survivor count (dose: 8.0 mg/kg/injection, schedule: Q01DX009 (ip), vehicle: saline): 10 of 10 (2×) | T/C [6]: 103, 125, 128, 130, 141 % of control | survivor count [6]: 9 of 10 | survivor count (dose: 10.0 mg/kg/injection, schedule: Q04DX004 (ip), vehicle: saline): 10 of 10 | survivor count (dose: 12.0 mg/kg/injection, schedule: Q01DX009 (ip), vehicle: water): 10 of 10 | T/C (dose: 12.0 mg/kg/injection, schedule: Q04DX003 (ip), vehicle: saline, evaluated on day 45): 128, 150, 195 % of control | T/C (dose: 12.0 mg/kg/injection, schedule: Q04DX003 (ip), vehicle: saline, evaluated on day 60): 94, 109, 122, 162 % of control [9 of 10 alive] | survivor count (dose: 12.0 mg/kg/injection, schedule: Q04DX003 (ip), vehicle: saline): 6 of 10, 8 of 10, 10 of 10 (2×) | T/C (dose: 12.0 mg/kg/injection, schedule: Q04DX003 (ip), vehicle: water): 127 % of control | T/C (dose: 12.5 mg/kg/injection, schedule: Q01DX001 (ip), vehicle: saline): 131 % of control | T/C (dose: 15.0 mg/kg/injection, schedule: Q01DX001 (ip), vehicle: saline): 100, 140, 145, 158 % of control | survivor count (dose: 15.0 mg/kg/injection, schedule: Q04DX004 (ip), vehicle: saline): 9 of 10 | survivor count (dose: 15.0 mg/kg/injection, schedule: Q04DX008 (ip), vehicle: saline): 10 of 10 | T/C [7]: 115 [8 of 10 alive], 125, 135 % of control | survivor count [7]: 7 of 10 | T/C (dose: 24.0 mg/kg/injection, schedule: Q01DX001 (ip), vehicle: saline): 131 % of control | T/C (dose: 24.0 mg/kg/injection, schedule: Q04DX003 (ip), vehicle: saline, evaluated on day 45): 128 % of control | T/C (dose: 24.0 mg/kg/injection, schedule: Q04DX003 (ip), vehicle: saline, evaluated on day 60): 91 % of control | survivor count (dose: 24.0 mg/kg/injection, schedule: Q04DX003 (ip), vehicle: saline): 9 of 10 and 10 of 10 (2×) | T/C [8]: 143 % of control | survivor count [8]: 10 of 10 | T/C [9]: 101, 105 [9 of 10 alive], 128, 133, 156 % of control | survivor count [9]: 6 of 10 | T/C (dose: 30.0 mg/kg/injection, schedule: Q01DX001 (ip), vehicle: saline): 135 % of control [8 of 10 alive] | survivor count (dose: 35.0 mg/kg/injection, schedule: Q01DX001 (ip), vehicle: saline): 8 of 10 | T/C [10]: 141 % of control [9 of 10 alive] | survivor count [10]: 1 of 10 | survivor count (dose: 45.0 mg/kg/injection, schedule: Q01DX001 (ip), vehicle: saline): 6 of 10 | survivor count (dose: 48.0 mg/kg/injection, schedule: Q04DX003 (ip), vehicle: water): 6 of 6 | survivor count (dose: 50.0 mg/kg/injection, schedule: Q01DX001 (ip), vehicle: saline): 2 of 10, 4 of 10, 6 of 10, 9 of 10 | survivor count (dose: 100.0 mg/kg/injection, schedule: Q01DX001 (ip), vehicle: saline): 1 of 10 | T/C (dose: 120.0 micrograms/kg/injection, schedule: Q01DX009 (ip), vehicle: saline): 130 % of control
